# Data published in article doi:10.1101/2020.10.02.323600.
# Chains of the proteins cited; added tags and fusions are not shown. Residues count along the entry.
# GST/MDRID (Q7K6A5, residues 341-788): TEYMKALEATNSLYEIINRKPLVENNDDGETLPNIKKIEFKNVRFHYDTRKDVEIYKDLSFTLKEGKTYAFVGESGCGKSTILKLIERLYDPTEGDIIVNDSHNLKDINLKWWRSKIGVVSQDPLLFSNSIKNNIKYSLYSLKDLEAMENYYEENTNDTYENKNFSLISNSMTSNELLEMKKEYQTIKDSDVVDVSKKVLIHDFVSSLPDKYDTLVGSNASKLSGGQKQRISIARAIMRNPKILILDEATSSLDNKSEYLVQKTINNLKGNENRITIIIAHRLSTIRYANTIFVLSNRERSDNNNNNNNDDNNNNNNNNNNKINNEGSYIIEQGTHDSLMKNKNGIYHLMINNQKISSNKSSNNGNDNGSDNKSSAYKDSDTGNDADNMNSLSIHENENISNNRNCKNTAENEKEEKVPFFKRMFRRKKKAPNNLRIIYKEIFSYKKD
# GST/MDRCD (Q7K6A5, residues 1054-1419): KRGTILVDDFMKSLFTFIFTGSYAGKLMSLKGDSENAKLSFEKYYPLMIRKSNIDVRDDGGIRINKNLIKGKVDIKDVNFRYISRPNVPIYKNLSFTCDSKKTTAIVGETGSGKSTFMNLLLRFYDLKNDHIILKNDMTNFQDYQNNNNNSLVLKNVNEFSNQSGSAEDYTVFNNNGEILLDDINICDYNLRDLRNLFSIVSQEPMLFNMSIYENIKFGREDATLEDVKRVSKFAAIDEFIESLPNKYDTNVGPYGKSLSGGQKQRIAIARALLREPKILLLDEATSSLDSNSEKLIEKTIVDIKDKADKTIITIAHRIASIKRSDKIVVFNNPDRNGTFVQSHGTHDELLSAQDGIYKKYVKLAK
# These are yes or no findings as the source states them, for the method shown. Tags and fused reporters may be left off the sequences shown.
# Molecular target: T1, GST/ScAtg18 (S. cerevisiae) (UniProt P43601)
# T1 sequence: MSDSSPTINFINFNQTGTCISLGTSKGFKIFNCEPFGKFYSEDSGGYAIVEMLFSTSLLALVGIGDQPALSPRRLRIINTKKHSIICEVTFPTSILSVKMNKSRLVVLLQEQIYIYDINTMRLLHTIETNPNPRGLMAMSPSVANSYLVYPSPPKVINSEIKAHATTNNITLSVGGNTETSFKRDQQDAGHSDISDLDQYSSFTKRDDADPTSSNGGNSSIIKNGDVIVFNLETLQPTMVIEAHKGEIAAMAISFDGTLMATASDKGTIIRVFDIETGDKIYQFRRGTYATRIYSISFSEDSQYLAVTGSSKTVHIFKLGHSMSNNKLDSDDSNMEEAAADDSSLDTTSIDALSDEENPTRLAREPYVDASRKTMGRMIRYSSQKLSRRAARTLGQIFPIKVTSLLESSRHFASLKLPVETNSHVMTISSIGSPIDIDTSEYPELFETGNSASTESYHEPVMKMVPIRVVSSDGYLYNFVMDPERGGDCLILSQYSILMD
# Test: far-Western, overlay or dot blot
row,Substance,binding
1,GST/MDRID (from UniProt Q7K6A5 341-788) (domain or fragment),no binding (tested: 2.5 µg/ml)
2,GST/MDRCD (from UniProt Q7K6A5 1054-1419) (domain or fragment),no binding (tested: 2.5 µg/ml)
